Test [1] addresses HA-tagged ATG2A-mLIR (FCIL/AAAA) (human) (UniProt Q2TAZ0). The test is described as follows: co-IP.
Test [2] addresses HA-tagged ATG2A-mYFS (YFS/AAA) (human) (UniProt Q2TAZ0). The experiment in a line: co-IP.
The target in test [3] is GFP-tagged GABARAP (HEK293T) (UniProt O95166). The experiment in a line: co-IP.
The target in test [4] is GST-tagged LC3A (UniProt Q9H492). The test is described as follows: pull-down.
For test [5], the target named is GST-tagged LC3C (UniProt Q9BXW4). The test is described as follows: pull-down.
For test [6], the target named is GST-tagged GABARAP (UniProt O95166). The experiment in a line: pull-down.

The chains behind the UniProt entries cited, without tags or fusion partners. Where a name states a change or a piece, a line headed by the entry shows the natural chain unless it says otherwise. A line that says so, or that is headed by a name, gives the form on record, which may keep a tag or linker. Residues count along the entry.
UniProt Q2TAZ0: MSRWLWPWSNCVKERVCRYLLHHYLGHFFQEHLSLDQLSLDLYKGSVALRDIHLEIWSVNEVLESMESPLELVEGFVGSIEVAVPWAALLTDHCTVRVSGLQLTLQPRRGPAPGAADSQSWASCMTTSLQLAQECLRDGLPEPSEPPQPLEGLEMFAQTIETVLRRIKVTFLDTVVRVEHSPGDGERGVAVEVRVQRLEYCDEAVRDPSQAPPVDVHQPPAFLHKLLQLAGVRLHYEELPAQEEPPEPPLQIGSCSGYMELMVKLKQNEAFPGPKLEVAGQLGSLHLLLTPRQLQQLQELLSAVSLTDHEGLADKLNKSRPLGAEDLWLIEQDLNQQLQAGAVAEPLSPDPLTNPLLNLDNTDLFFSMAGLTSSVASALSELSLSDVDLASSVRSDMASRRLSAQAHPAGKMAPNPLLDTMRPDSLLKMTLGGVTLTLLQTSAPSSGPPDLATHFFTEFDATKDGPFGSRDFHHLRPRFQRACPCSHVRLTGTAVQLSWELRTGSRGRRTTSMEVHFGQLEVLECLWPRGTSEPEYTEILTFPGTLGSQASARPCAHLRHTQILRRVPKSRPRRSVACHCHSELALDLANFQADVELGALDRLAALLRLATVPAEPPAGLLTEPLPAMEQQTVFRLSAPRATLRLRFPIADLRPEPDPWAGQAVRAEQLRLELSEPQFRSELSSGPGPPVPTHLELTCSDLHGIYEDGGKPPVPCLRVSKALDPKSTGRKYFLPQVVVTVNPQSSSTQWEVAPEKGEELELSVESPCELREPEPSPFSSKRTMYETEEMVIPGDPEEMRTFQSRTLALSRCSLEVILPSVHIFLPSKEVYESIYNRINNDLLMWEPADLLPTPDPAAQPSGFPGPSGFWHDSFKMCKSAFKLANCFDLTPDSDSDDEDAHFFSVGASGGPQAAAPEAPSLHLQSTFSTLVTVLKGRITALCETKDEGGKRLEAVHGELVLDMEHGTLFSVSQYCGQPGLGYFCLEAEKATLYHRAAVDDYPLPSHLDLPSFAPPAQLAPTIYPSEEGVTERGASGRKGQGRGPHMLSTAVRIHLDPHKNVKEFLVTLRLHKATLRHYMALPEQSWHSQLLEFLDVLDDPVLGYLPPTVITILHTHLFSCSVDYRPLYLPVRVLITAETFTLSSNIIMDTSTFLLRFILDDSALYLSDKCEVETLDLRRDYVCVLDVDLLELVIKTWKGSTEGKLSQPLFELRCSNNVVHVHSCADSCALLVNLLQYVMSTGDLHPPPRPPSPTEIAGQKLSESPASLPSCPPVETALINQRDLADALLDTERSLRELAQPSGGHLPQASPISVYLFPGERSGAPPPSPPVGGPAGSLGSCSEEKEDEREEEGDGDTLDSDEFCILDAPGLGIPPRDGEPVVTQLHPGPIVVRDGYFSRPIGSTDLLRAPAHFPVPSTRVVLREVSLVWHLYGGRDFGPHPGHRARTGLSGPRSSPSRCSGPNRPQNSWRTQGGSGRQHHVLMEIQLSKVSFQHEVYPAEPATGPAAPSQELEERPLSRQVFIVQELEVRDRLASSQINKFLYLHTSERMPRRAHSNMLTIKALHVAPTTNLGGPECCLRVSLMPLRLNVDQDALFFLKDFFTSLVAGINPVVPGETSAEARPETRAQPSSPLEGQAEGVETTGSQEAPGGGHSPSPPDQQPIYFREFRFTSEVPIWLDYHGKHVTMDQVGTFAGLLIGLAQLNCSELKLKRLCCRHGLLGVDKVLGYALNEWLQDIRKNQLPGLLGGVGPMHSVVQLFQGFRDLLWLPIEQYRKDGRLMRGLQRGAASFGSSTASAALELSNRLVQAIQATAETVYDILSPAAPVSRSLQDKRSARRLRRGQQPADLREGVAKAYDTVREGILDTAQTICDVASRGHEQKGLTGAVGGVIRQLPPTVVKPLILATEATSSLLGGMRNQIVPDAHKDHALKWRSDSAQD
Myc-tagged ATG2A mutant LIR (FCIL/AAAA) (Q2TAZ0-1, form named): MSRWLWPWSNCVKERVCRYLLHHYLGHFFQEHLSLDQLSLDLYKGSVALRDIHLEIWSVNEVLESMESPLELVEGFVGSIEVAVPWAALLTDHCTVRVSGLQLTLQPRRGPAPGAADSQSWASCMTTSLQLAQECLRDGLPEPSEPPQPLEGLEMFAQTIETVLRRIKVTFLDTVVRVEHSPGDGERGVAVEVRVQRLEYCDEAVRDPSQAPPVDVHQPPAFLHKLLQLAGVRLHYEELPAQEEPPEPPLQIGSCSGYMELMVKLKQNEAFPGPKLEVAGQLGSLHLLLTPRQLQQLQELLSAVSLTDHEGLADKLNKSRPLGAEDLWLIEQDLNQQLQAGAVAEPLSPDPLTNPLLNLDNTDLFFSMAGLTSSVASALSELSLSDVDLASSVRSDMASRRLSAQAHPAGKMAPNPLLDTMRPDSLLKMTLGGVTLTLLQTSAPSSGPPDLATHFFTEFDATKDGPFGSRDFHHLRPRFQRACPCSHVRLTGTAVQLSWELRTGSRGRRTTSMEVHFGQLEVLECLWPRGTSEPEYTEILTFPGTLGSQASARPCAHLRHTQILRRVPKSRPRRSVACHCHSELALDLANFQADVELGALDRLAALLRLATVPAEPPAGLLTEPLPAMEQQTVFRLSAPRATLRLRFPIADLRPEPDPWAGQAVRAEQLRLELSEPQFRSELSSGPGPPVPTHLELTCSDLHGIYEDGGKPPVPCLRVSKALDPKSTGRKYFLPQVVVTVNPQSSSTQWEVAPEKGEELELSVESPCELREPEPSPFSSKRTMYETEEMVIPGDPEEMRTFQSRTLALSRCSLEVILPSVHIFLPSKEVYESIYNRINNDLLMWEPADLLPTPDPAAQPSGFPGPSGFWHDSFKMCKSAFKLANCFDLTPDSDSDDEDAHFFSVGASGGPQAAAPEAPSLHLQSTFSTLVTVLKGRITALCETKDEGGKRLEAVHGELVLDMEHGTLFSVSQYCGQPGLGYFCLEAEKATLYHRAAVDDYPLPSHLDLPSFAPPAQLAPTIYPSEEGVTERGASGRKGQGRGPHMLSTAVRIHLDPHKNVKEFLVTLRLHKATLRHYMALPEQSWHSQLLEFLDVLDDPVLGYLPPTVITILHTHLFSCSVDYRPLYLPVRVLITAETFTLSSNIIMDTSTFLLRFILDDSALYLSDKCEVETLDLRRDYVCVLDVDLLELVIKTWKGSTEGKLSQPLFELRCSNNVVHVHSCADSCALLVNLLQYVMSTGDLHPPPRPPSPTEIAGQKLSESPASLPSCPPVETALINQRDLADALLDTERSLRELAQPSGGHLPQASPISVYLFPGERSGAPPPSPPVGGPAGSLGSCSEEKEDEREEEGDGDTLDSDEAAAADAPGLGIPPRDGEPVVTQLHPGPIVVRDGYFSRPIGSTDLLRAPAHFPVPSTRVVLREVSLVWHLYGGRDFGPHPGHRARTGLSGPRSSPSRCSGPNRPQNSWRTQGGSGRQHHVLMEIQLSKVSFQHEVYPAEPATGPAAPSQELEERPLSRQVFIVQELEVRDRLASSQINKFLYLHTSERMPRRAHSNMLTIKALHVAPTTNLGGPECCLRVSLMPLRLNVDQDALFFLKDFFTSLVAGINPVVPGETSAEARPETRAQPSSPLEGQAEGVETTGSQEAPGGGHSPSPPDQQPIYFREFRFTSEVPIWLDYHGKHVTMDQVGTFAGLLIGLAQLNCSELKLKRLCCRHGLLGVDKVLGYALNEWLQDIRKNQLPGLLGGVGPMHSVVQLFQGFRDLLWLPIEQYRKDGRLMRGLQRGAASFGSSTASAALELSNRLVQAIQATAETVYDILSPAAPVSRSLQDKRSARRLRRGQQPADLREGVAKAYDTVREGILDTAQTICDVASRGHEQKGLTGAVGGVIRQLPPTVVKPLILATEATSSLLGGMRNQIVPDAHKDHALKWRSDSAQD
HA-tagged ATG2A-mYFS (YFS/AAA) (Q2TAZ0-1, form named): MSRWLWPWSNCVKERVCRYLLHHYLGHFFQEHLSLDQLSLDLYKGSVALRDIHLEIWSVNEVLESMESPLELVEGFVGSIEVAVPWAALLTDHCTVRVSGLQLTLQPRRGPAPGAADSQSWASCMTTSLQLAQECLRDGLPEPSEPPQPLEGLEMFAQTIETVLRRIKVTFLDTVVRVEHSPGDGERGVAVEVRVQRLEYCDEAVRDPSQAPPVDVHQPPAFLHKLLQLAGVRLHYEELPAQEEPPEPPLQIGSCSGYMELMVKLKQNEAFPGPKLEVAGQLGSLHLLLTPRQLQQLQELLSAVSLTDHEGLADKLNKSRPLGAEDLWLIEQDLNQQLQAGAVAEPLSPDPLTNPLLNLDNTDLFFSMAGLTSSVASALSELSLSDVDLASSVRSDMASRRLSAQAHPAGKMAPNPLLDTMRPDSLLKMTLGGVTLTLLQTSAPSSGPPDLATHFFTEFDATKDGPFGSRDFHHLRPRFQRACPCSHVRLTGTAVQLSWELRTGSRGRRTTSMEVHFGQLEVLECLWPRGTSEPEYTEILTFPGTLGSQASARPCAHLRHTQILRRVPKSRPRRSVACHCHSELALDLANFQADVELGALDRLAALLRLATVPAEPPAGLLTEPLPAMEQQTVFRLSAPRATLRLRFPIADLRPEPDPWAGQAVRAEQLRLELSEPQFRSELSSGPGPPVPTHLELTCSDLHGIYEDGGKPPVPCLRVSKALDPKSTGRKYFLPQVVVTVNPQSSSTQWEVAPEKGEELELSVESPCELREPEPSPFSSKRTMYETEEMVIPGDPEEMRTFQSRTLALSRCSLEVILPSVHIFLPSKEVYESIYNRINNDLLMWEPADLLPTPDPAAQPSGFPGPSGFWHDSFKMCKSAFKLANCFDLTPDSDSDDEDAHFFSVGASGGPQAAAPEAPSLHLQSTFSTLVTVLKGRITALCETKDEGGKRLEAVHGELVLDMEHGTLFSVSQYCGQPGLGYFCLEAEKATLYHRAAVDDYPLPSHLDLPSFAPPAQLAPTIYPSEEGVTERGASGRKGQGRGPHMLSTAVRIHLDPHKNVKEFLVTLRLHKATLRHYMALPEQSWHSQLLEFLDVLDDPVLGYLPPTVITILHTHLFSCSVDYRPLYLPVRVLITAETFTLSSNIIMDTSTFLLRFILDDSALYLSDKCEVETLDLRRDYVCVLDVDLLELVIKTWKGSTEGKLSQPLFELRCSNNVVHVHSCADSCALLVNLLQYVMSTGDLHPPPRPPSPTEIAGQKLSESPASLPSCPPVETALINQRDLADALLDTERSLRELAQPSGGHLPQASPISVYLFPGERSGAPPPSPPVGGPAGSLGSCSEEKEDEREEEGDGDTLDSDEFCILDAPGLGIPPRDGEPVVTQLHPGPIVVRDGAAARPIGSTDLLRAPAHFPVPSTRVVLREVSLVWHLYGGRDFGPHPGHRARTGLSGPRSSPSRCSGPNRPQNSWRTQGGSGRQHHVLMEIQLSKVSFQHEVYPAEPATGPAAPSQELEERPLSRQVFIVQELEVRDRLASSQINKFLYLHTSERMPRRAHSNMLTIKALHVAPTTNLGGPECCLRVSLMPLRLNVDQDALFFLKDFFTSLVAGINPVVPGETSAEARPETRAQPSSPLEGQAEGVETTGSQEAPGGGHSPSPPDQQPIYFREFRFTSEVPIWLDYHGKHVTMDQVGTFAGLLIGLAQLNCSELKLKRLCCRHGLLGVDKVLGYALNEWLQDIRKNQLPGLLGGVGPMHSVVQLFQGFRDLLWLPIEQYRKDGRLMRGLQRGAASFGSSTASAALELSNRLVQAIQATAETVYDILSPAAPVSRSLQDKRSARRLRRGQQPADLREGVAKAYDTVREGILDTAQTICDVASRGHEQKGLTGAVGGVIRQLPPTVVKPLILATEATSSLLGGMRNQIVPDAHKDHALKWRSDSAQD
UniProt O95166: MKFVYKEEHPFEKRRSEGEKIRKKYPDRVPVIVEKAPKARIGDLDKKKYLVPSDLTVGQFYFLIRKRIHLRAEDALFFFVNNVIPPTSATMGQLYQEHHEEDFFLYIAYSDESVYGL
UniProt Q9BXW4, residues 1-126: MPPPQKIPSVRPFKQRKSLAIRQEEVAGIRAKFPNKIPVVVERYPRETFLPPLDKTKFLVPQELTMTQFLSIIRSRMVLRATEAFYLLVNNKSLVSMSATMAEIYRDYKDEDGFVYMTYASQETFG

Results are given in words; binding and its absence hold for the method and conditions named. Binding seen in cells or lysates may run through a third protein. Some binding calls cover weakened binding; strength is not graded here.

“GFP-tagged GABARAP (U2OS ATG2A/B DKO cells) (from UniProt O95166 1-117)”: the binding entry in test [1] is “no binding”; in test [2], “binds”.
In the case of “Myc-ATG2A-mLIR#2 (FSTL/AAAA) (from UniProt Q2TAZ0-1 1-1938)”, in test [3], the binding entry is “binds”.
As to “Myc-tagged ATG2A mutant LIR (FCIL/AAAA) (from UniProt Q2TAZ0-1 1-1938)”, the binding result in test [3], in test [4], in test [5] and in test [6] was “no binding” throughout.
As for “Myc-tagged ATG2A wild type (from UniProt Q2TAZ0-1 1-1938)”, the binding entry in test [4] was “binds”.
Turning to “Myc-tagged ATG2B mutant LIR (FCIL/AAAA) (from UniProt Q96BY7 1-2078)”, the binding entry in test [3], in test [4], in test [5] and in test [6] was “no binding” throughout.
“Myc-tagged ATG2B wild type (from UniProt Q96BY7 1-2078)”: the binding entry in test [3], in test [4] and in test [6] was “binds” each time.

Source of the values: doi:10.1101/624627.
